Binding data for 1 substance are collected here from PMC6006247.

The chains behind the UniProt entries cited, without tags or fusion partners. Where a name states a change or a piece, a line headed by the entry shows the natural chain unless it says otherwise. A line that says so, or that is headed by a name, gives the form on record, which may keep a tag or linker.
human Top2α ATPase domain (residue 29 to 428) bearing the K168A mutation (P11388, form named): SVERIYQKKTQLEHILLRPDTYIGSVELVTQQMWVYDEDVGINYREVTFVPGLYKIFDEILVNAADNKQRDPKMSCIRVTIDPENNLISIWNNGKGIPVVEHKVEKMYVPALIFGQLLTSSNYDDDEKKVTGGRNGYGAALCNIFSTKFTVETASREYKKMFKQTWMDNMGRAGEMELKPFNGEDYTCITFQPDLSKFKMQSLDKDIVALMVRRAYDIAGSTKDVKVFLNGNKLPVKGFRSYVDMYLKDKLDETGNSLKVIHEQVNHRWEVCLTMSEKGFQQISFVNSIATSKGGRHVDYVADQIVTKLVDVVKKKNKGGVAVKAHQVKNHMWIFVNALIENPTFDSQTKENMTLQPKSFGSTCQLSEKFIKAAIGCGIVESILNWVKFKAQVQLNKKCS

Experiment [1] has as its target human Top2α ATPase domain (residue 29 to 428) bearing the K168A mutation (human) (UniProt P11388). Put plainly: SEC; analytical gel filtration, Superdex200 10/300 GL; protein at 1.0 mg/ml with an excess of AMP-PNP (1 mM in the legend); 20 mM Tris-HCl pH 8.0, 5 mM MgCl2, 200 mM NaCl, 0.1 mM BME; 0.3 ml/min; both purified. Background: Size exclusion chromatography separates by hydrodynamic size, large species first.

For experiment [2] the target is unchanged. Put plainly: SEC; analytical gel filtration, Superdex200 10/300 GL; protein at 1.0 mg/ml without AMP-PNP; 20 mM Tris-HCl pH 8.0, 5 mM MgCl2, 200 mM NaCl, 0.1 mM BME; 0.3 ml/min; both purified.

These are yes or no findings as the source states them, for the method shown.

For the substance “human Top2α ATPase domain (residue 29 to 428) bearing the K168A mutation (from UniProt P11388 29-428) (domain or fragment)”, the binding result in experiment [1] and in experiment [2] was “no binding (tested: 1.0 mg/ml)” throughout.
